Here are results for four molecules from patent US20240082402A1 (ELPIS BIOPHARMACEUTICALS, published 2024).

Amino acid sequences for entries named in this document (tags omitted). A change or cut given only in a name is not applied to a line headed by its entry. Chains listed by the source or under a name are the forms on record and can include a tag or linker. Residues count along the entry.
UniProt P15391, residues 20-291: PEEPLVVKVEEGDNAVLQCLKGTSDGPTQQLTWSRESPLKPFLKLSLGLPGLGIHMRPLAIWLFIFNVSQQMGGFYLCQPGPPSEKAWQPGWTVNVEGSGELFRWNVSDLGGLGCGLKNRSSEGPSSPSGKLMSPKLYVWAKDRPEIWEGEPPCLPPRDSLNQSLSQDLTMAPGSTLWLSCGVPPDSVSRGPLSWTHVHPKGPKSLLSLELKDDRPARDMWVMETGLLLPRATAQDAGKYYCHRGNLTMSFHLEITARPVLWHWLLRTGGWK
UniProt P20273: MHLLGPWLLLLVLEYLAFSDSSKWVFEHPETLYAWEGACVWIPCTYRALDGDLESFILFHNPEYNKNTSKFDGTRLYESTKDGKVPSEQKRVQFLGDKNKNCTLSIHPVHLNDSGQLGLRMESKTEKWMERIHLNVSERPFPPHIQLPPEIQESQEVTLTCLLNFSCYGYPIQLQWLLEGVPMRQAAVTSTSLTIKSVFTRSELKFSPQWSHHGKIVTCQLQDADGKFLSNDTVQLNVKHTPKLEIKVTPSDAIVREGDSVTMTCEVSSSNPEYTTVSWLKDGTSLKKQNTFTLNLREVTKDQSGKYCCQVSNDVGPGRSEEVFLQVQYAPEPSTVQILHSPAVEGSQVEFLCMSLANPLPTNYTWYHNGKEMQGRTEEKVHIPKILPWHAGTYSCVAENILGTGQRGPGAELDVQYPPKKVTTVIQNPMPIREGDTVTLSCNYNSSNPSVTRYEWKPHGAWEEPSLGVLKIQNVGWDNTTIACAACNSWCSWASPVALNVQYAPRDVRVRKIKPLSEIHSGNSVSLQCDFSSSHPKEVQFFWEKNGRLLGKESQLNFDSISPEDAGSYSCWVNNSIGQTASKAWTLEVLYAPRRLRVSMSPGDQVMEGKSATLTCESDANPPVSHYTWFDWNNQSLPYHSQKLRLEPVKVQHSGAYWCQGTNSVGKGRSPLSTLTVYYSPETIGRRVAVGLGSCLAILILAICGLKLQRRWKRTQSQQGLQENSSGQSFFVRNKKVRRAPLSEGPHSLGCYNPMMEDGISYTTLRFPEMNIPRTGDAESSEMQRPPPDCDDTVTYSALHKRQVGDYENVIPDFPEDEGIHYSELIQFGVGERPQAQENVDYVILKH
endogenous CD22 on Raji / Nalm6 cells (also on CD19 knock-out Raji cells): residues 20-847 of P20273
HIS tagged human CD22 recombinant protein: residues 20-687 of P20273

Results are given in words; binding and its absence hold for the method and conditions named. Some binding calls cover weakened binding; strength is not graded here. For part of these data: Sequences can lack the tags named with a protein.

For assay [1], the target named is human CD19 and human CD22 co-expressed on transfected K562 cells (human) (UniProt P15391+P20273). Kind of assay: FACS, scFv at 200 nM on CD19/CD22 K562 cells, Alexa Fluor 647 anti-His detection, % positive cells. On the technique in general: In flow cytometry, cells or beads pass a laser one at a time.
The target in assay [2] is HIS tagged human CD22 recombinant protein (human) (UniProt P20273). Kind of assay: ELISA, plate coated with His-tagged human CD22 at 2 ug/mL, anti-hFc HRP detection. (ELISA stands for enzyme-linked immunosorbent assay.)
The target of assay [3] is endogenous CD22 on Raji / Nalm6 cells (also on CD19 knock-out Raji cells) (human) (UniProt P20273). Kind of assay: FACS, 25 nM scFv-Fc on Raji and Nalm6 cells, anti-hFc detection.
Assay [4] has the same target. The assay can be described thus: FACS, scFv-Fc on parental Raji and CD19 knock-out Raji cells.
The target of assay [5] is HIS tagged human CD19 recombinant protein (human) (UniProt P15391). The assay can be described thus: ELISA, plate coated with His-tagged human CD19 at 2 ug/mL, anti-hFc HRP detection.

B1: EPC-001-2 (scFv)
scFv (VH-linker-VL): QVQLVQSGAEVKRPGASVKVSCKASGYTFTSYGISWVRQAPGQGLEWMGWISAYNGNTNYAQKLQGRVTMTTDTSTSTAYMELRSLRSDDTAVYYCARDPGIAVAGTVDYWGQGTLVTVSSGGGGSGGGGSGGGGSEIVMTQSPATLSVSPGEGVTLSCRASQSVSSNLAWYQQRPGQAPRLLIYGASIKATDVPDRFSGGGSGTDFTLSISNVQSEDFAVYYCQQYHTWTPVTFGGGTKVEIK
notes: also called anti-CD22 monospecific scFv; parental anti-CD22 scFv
For B1, the binding result in assay [1] is “binds”.

B2: anti-CD22 scFv-Fc (Fc fusion, not shown: a dimerising Fc or GST)
chain: EVQLVQSGAEVKKPGASVKVSCKASGYTFTSYGISWVRQAPGQGLEWMGWISAYNGNTNYAQKLQGRVTMTTDTSTSTAYMELRSLRSDDTAVYYCARDYGDPSGDDYWGQGTLVTVSSGGGGSGGGGSGGGGSEIVLTQSPATLSVSPGEGVTLSCRASQSVSSNLAWYQQRPGQAPRLLIYGASIKATDVPDRFSGGGSGTDFTLSISNLQSEDFAVYYCQQYHTWPPVTFGGGTKVEIK
notes: also called Anti-CD22-Fc
With B2, the binding result in assay [2], in assay [3] and in assay [4] was “binds” in each case.

B3: EPC-001-4 (scFv)
scFv (VH-linker-VL): EVQLVQSGAEVKKPGASVKVSCKASGYTFTSYGISWVRQAPGQGLEWMGWISAYNGNTNYAQKLQGRVTMTTDTSTSTAYMELRSLRSDDTAVYYCARDYGDPSGDDYWGQGTLVTVSSGGGGSGGGGSGGGGSEIVLTQSPATLSVSPGEGVTLSCRASQSVSSNLAWYQQRPGQAPRLLIYGASIKATDVPDRFSGGGSGTDFTLSISNLQSEDFAVYYCQQYHTWPPVTFGGGTKVEIK
notes: as for B1
Regarding B3, the binding entry in assay [1] is listed as “binds”.

B4: anti-CD19 scFv-Fc (Fc fusion, not shown: a dimerising Fc or GST)
chain: QVQLQQWGAGLLKPSETLSLTCAVYGGSFSGYYWTWIRQPPGKGLEWIGEINHGGSSNYNPSLKSRVTISVDTSKKQFSLNLNSVTAADTAVYYCARGLGYRSGWYEVENAFDIWGQGTMVTVSSGGGGSGGGGSGGGGSQPVLTQPPSVSVAPGQTARITCGGNKIESRSVHWYQQKPGQAPVLVVYDDGARPSGIPERLSGSNSGDTATLTISRVEPGDEADYYCQVWDGSSVIFGGGTKLTVL
notes: also called anti-CD19-Fc
Turning to B4, the binding result in assay [5] is reported as “binds”.
